Assay results from article PMC5705611.

Amino acid sequences for entries named in this document (tags omitted).
UniProt O81223: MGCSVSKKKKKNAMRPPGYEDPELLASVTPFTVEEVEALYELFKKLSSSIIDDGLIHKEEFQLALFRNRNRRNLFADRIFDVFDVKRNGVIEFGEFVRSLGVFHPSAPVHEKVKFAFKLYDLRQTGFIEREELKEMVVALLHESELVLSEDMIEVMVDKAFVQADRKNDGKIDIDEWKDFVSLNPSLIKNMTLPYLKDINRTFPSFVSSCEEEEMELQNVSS
UniProt Q9C5P6: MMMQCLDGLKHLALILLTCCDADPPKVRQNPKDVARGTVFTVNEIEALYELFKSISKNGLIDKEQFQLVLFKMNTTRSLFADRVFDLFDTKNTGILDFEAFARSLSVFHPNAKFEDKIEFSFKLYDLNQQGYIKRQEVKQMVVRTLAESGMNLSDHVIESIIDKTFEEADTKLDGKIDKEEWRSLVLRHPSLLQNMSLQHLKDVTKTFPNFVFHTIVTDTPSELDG
UniProt Q9LTB8: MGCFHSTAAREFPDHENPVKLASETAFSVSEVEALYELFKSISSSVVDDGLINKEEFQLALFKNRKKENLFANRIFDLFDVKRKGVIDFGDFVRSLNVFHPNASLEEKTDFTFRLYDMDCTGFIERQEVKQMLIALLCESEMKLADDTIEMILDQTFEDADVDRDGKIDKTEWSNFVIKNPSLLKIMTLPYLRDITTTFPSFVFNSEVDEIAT
UniProt Q7FRS8: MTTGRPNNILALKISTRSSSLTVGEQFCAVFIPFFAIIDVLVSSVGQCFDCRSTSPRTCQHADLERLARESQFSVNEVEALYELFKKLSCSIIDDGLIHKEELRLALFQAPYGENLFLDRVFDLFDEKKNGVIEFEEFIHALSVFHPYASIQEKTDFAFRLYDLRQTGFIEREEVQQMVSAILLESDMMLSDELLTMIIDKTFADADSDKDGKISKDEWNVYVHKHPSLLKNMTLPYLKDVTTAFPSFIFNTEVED
UniProt O81445: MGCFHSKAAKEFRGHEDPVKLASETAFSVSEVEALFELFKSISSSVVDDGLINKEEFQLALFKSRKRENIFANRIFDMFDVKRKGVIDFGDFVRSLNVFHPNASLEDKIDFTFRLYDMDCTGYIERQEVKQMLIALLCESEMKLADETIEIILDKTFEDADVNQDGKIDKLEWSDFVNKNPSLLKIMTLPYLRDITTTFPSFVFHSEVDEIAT
UniProt Q9SUA6: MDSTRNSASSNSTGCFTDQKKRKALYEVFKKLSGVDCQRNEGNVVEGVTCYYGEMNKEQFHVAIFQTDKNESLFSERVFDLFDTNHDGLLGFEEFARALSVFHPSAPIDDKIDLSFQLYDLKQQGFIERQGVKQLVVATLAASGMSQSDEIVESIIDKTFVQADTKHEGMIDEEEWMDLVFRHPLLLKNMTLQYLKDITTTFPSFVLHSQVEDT

What was measured:
Assay in all cases: two-hybrid; yeast AH109 with AD-CIPK3 splice variant and BD-CBL (CBL1-CBL10); spot dilution on SD-HLW + 0.5 mM 3AT and SD-HLW + 3 mM 3AT; strength also by ONPG-based beta-galactosidase assay (Miller Units)
[1] = biological target: T1, BD-CBL8 (Calcineurin B-like protein 8) (Arabidopsis) (UniProt Q9FUQ7)
T1 sequence: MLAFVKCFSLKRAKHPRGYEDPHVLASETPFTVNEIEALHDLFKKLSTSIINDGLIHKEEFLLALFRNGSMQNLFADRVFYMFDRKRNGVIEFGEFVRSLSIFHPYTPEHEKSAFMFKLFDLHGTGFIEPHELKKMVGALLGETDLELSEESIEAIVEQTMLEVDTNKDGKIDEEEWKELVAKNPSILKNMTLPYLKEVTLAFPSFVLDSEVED

[2] = biological target: BD-CBL4 (Calcineurin B-like protein 4) (Arabidopsis) (UniProt O81223)
[3] = biological target: BD-CBL6 (Calcineurin B-like protein 6) (Arabidopsis) (UniProt Q9C5P6)
[4] = biological target: BD-CBL9 (Calcineurin B-like protein 9) (Arabidopsis) (UniProt Q9LTB8)
[5] = biological target: BD-CBL10 (Calcineurin B-like protein 10) (Arabidopsis) (UniProt Q7FRS8)
[6] = biological target: T2, BD-CBL5 (Calcineurin B-like protein 5) (Arabidopsis) (UniProt Q7FZF1)
T2 sequence: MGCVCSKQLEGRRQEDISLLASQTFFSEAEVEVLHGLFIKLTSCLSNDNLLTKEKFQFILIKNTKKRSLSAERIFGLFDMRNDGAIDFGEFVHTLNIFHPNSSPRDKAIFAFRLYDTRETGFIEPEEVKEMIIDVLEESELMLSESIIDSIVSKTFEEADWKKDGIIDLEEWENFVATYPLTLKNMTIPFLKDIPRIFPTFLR

[7] = biological target: BD-CBL1 (Calcineurin B-like protein 1) (Arabidopsis) (UniProt O81445)
[8] = biological target: BD-CBL7 (Calcineurin B-like protein 7) (Arabidopsis) (UniProt Q9SUA6)

## AD-CIPK3.4 (CBL-interacting protein kinase 3, splice variant CIPK3.4) (from UniProt Q2V452-1) (enzyme)
[1]
  binding: no binding
[2]
  binding: no binding
[3]
  binding: binds weakly
[4]
  binding: binds
[5]
  binding: no binding
[6]
  binding: no binding
[7]
  binding: binds
[8]
  binding: no binding

## AD-CIPK3.3 (CBL-interacting protein kinase 3, splice variant CIPK3.3) (Arabidopsis thaliana) (enzyme)
[1]
  binding: no binding
[6]
  binding: no binding

## AD-CIPK3.2 (CBL-interacting protein kinase 3, splice variant CIPK3.2) (Arabidopsis thaliana) (enzyme)
[1]
  binding: no binding
[6]
  binding: no binding

## AD-CIPK3.1 (CBL-interacting protein kinase 3, splice variant CIPK3.1) (Arabidopsis thaliana) (enzyme)
[1]
  binding: no binding
[6]
  binding: no binding

No constants are given. Whether binding was seen depends on the method and setting. For some assays here: Binding calls can cover weak binding; strength is not graded here. For some assays here: Sequences can lack the tags named with a protein.
